PubChem BioAssay AID1159578, Peter MacCallum Cancer Centre, 2015
Here is an unselected part of about 18,000 reagents tested. In the full data, about 1,030 (5.7%) were called active. 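Inactive calls also include pools with fewer than 3300 nuclei, whose migration was not assessed.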 The raw values are shown without normalisation. A number with no mark means an inactive call. Further read-outs or replicates are left out here.

Test: 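Genome-wide hunt for genes controlling movement of lymphatic endothelial cells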 (primary screen)
System: human lymphatic endothelial cells
Knock-down reagent: siRNA pool against human genes, 40 nM
Duration: 48 h after transfection
Measurement: 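Cells stained with dye and imaged after a scratch; covered wound area and nuclei counted, duplicates averaged, migration set against mock wells and turned into a robust z-score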
Reading the numbers: migration robust z-score: higher = faster migration into the scratch; nuclei per well: higher = more cells in the well
Call rule: 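Migration changed when robust z exceeds 2 or falls below -2 and mean nuclei number is at least 3300; otherwise not called changed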
Meaning of the calls: active = migration changed; inactive = no migration change, or too few cells

With BPY2C, how do the results read?
migration robust z-score: -0.88; migration class with cell-count check: migration z between -2 and 2; enough cells; nuclei per well, duplicate mean: 5350

Which result is listed for DRD1?
migration robust z-score: -0.62; migration class with cell-count check: migration z between -2 and 2; enough cells; nuclei per well, duplicate mean: 4956

With BTBD7, what does the deposit list?
migration robust z-score: -1.39; migration class with cell-count check: migration z between -2 and 2; enough cells; nuclei per well, duplicate mean: 5516

Which result is listed for TLE3?
migration robust z-score: -1.4; migration class with cell-count check: migration z between -2 and 2; enough cells; nuclei per well, duplicate mean: 4900

Reformatted: results already given
{"target gene":"BTBD7","migration robust z-score":-1.39,"migration class with cell-count check":"migration z between -2 and 2; enough cells","nuclei per well, duplicate mean":5516}
{"target gene":"TLE3","migration robust z-score":-1.4,"migration class with cell-count check":"migration z between -2 and 2; enough cells","nuclei per well, duplicate mean":4900}

Further results:
What did the screen give for TBCE?
migration robust z-score: 1; migration class with cell-count check: migration z between -2 and 2; enough cells; nuclei per well, duplicate mean: 6902

What did the screen give for CCDC90B?
migration robust z-score: -0.3; migration class with cell-count check: migration z between -2 and 2; enough cells; nuclei per well, duplicate mean: 4083

For DNAJA1, how do the results read?
migration robust z-score: -0.02; migration class with cell-count check: migration z between -2 and 2; enough cells; nuclei per well, duplicate mean: 6244

How did the screen score MZT2A?
migration robust z-score: -0.05; migration class with cell-count check: migration z between -2 and 2; enough cells; nuclei per well, duplicate mean: 6700

For ELAC2, what was measured?
migration robust z-score: -0.39; migration class with cell-count check: migration z between -2 and 2; enough cells; nuclei per well, duplicate mean: 5351

Which result is listed for DAP?
migration robust z-score: -0.04; migration class with cell-count check: migration z between -2 and 2; enough cells; nuclei per well, duplicate mean: 4681

For ANGPTL4, what was measured?
migration robust z-score: -0.88; migration class with cell-count check: migration z between -2 and 2; enough cells; nuclei per well, duplicate mean: 5276

With KANK3, what was measured?
migration robust z-score: -0.26; migration class with cell-count check: migration z between -2 and 2; enough cells; nuclei per well, duplicate mean: 6633
